These are yes or no findings as the source states them, for the method shown. In cells and extracts the contact can be indirect. Some binding calls cover weakened binding; strength is not graded here. Sequences can lack the tags named with a protein.
Biological target: T1, DDX11-3xFlag KAK mutant (human) (UniProt Q96FC9)
T1 sequence: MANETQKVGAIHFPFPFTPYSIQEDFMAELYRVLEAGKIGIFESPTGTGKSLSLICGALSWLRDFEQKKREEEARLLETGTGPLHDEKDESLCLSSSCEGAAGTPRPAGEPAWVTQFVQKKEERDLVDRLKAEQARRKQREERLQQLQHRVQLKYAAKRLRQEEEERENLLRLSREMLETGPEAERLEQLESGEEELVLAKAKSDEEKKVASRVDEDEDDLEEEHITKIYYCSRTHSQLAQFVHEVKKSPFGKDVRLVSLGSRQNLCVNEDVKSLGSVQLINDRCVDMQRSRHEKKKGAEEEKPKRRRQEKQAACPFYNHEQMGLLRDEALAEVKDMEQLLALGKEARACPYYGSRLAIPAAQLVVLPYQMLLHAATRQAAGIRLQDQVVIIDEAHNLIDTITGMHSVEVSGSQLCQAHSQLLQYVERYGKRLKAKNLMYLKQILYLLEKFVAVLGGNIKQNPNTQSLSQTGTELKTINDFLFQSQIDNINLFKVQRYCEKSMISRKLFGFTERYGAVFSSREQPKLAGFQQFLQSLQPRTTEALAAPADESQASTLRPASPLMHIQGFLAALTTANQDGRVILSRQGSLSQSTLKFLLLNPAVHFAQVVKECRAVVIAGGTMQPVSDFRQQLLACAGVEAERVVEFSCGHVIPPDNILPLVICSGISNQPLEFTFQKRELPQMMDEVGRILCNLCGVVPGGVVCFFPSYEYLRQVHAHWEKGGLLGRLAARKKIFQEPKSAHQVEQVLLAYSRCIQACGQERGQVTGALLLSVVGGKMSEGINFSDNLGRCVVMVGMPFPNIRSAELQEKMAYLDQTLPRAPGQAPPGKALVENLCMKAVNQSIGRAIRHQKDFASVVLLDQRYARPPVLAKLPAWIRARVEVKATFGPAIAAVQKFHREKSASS
Assay: co-IP; whole cell extracts of HEK 293T cells transiently expressing DDX11-3xFlag (wild type or mutants), anti-Flag M2 agarose beads, 50 mM Tris-HCl pH 8.0, 150 mM NaCl, 0.25% Triton X-100, 10% glycerol, 2 hr at 4 C, elution with Flag peptide; Western blot of endogenous partners

Protein sequences, listed by entry. Tags and fused reporters are not part of them.
UniProt Q9UNS1: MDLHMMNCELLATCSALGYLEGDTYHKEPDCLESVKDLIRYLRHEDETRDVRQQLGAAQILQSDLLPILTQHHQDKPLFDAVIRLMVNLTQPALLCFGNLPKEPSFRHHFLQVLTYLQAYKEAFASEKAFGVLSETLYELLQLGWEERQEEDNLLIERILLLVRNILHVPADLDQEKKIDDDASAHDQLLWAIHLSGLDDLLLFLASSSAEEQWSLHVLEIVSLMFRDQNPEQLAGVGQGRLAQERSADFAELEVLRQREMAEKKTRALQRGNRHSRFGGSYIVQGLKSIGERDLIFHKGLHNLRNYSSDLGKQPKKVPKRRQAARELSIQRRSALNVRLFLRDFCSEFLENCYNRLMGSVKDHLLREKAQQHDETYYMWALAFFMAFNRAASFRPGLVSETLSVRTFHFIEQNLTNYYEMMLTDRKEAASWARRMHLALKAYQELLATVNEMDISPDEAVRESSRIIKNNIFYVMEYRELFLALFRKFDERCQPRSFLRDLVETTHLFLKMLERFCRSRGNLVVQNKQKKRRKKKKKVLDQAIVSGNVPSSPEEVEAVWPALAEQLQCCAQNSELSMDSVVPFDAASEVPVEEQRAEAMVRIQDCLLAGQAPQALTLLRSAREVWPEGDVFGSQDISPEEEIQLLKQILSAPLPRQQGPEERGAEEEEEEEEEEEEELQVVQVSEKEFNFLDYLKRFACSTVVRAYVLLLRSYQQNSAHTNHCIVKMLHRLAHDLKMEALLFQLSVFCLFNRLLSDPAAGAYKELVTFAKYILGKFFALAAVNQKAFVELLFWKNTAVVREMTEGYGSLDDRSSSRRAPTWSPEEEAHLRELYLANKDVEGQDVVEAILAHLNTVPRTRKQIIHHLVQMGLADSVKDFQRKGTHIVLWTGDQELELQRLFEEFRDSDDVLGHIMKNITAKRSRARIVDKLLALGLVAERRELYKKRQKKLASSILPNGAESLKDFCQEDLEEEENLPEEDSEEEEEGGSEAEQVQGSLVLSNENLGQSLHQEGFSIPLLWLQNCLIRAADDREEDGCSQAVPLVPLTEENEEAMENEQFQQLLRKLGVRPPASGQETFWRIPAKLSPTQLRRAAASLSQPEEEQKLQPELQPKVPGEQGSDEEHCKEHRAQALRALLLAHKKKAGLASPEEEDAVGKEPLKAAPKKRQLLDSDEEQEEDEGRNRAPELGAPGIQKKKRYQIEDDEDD

binding: binds
Substance: endogenous Timeless (HEK 293T) (from UniProt Q9UNS1 1-1208)

From publication PMC6179184, “Interaction of the Warsaw breakage syndrome DNA helicase DDX11 with the replication fork-protection factor Timeless promotes sister chromatid cohesion” (PLoS Genetics, 2018)
